# Laboratory results reported in the supplement of paper PMC6411743.
# The chains behind the UniProt entries cited, without tags or fusion partners.
# UniProt P54709, whole entry: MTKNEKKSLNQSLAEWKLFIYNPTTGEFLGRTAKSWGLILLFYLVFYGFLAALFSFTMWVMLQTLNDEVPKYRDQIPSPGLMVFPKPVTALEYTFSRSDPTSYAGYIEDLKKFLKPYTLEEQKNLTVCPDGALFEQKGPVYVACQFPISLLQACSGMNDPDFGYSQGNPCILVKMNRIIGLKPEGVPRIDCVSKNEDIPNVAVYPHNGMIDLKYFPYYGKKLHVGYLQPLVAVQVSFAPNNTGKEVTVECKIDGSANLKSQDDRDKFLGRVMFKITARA
# ± gives the standard deviation of the averaged measurements. The list shows a part of the results, in another mix than the full data. Most values lie at the level of the controls, where differences are scatter.
# Target: ATP1B3 (UniProt P54709)
# Assay: NP40-soluble protein abundance relative to vehicle (solubility fold change) (ratio); higher = more soluble protein in presence of AMP-PNP
# In short: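 Eight concentrations, 0.1 to 10 mM, were tested on Jurkat crude lysate for 10 min at room temperature and then 3 min at 37 °C, in three independent experiments. The lysate was solubilised with 0.8% NP40 and benzonase, ultracentrifuged, and the supernatant TMT-labelled for LC-MS/MS. Each value is the fold change against the detergent-processed vehicle in its own replicate, from vsn-normalised intensities.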
smiles,measurement,setting,value
Nc1ncnc2c1ncn2[C@@H]1O[C@H](COP(=O)(O)OP(=O)(O)NP(=O)(O)O)[C@@H](O)[C@H]1O [adenylyl imidodiphosphate],NP40-soluble protein abundance,concentration: 0.1mM,0.993 ± 0.012
same,NP40-soluble protein abundance,concentration: 0.5mM,1.03 ± 0.022
